Results published in patent EP1377165B1.
These are yes or no findings as the source states them, for the method shown. Some binding calls cover weakened binding; strength is not graded here.

Sequences of proteins named here, by UniProt entry; tags and fusion partners are left off.
UniProt Q99816: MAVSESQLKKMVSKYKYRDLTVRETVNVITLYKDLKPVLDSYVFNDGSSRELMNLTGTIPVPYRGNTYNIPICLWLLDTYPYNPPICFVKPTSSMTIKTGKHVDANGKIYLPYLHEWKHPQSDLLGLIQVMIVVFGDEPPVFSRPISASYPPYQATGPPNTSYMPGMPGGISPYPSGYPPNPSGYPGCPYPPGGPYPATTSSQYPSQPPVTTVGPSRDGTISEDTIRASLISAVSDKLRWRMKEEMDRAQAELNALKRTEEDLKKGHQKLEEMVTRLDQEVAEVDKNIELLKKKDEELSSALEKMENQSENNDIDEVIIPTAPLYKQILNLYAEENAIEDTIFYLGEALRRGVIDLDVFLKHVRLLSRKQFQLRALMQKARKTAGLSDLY

Biological target: T1, growth arrest-specific protein GAS7b (UniProt O60861)
T1 sequence (looked up): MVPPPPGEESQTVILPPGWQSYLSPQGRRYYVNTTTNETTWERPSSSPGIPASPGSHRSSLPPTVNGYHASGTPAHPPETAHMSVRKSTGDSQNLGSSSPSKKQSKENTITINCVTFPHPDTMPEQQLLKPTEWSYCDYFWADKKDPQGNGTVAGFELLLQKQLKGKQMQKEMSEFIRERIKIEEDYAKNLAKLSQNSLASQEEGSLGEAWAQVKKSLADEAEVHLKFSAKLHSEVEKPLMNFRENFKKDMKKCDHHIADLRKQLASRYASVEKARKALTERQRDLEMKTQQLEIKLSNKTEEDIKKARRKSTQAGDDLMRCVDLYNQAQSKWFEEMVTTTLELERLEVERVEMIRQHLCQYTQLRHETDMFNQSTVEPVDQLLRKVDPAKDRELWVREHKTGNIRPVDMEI
Assay: yeast two-hybrid library search

## tumor susceptibility gene 101 protein (Tsg101) used to search a spleen library (from UniProt Q99816 1-390)
  binding: binds
